In article PMC7819943, “Rice protein-binding microarrays: a tool to detect cis-acting elements near promoter regions in rice”:
Some of the results follow.

By UniProt entry, the sequences of proteins in these tests, tags left out.
UniProt Q0JBA9, entry or part of it: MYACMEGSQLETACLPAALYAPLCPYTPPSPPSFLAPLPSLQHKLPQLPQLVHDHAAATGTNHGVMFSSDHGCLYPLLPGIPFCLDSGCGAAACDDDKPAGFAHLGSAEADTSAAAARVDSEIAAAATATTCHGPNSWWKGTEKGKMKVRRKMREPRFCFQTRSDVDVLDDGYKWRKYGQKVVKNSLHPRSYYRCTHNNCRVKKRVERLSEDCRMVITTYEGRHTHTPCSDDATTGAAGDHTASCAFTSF

What follows are sequences tested against OsWRKY34 (Oryza sativa, UniProt Q0JBA9 1-250) (assay: protein-binding microarray (RPBM); PBS, 2% BSA, 51.3 ng/ul salmon testes DNA, 50 uM zinc acetate, 200 nM TF, 25 C, 1 h; high values mean tight binding). Conditions: protein: recombinant; tags: N-terminal polyhistidine and DsRed monomer fusion (pET32a); label: CyDye5-dUTP incorporated in the synthesized complementary strand; 3' TTTTT single-stranded linker to array surface; dsDNA, one strand shown.
In short: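 Transcription factors were each fused at the N-terminus to a polyhistidine tag plus DsRed and expressed in E. coli BL21-CodonPlus before Ni–NTA purification. Binding to a double-stranded custom Agilent array was carried out with 200 nM protein at 25 °C for 1 h in PBS, 2% BSA, salmon testes DNA and 50 µM zinc acetate. The binding signal is per-feature fluorescence intensity, in arbitrary units, on an Axon 4000B scanner.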
In the case of “CGTGCCGCTGCCGTCGCGCACTGCCCGTTGACGCACGCCTCGGAGTCACCTAGTGCAG”, the binding signal is reported as 9740 fluorescence intensity (a.u.). “ACCTTCGCTAAGCTAATTCCGCGCCTACTCCACCCGTCACCGGAGTCACCTAGTGCAG” was tested, and the binding signal was 11200 fluorescence intensity (a.u.). “CAGGAATAGACCTGTATCTTTGTTTTGTTGTCTGAAACTTCGGAGTCACCTAGTGCAG” was tested, and the binding signal was 8760 fluorescence intensity (a.u.). For “AGACGAGACCGACCCACCGCACCGCGCCGCACTTGCGCCACGGAGTCACCTAGTGCAG”, the binding signal was 9900 fluorescence intensity (a.u.). In the case of “TTTCTTGGCTGGTTTGGTTGTGGATTGGATTGGATTGGGTCGGAGTCACCTAGTGCAG”, the binding signal is reported as 16100 fluorescence intensity (a.u.). For “TCCCCGCTACTCCGCTAGTAATCGCAACGCGAGCGTTCCTCGGAGTCACCTAGTGCAG”, the binding signal was 10000 fluorescence intensity (a.u.). With “ACAACCTCCCGCCTCTTGGTTTCCCCAATCTCCCGCGCGCCGGAGTCACCTAGTGCAG” the binding signal was 8680 fluorescence intensity (a.u.). For “TTTTTTATCGTAGTTTATTTTTCAGTTTTTGCTTTTAGATCGGAGTCACCTAGTGCAG”, the binding signal was 9270 fluorescence intensity (a.u.). With “TACTATTTATTTATTATCACTGTATGCGTCTATGCACTTCCGGAGTCACCTAGTGCAG” the binding signal was 11100 fluorescence intensity (a.u.). For “ATCCCAGCCCAGCCCGCTTGCTCCCTTTGCTTGCCTGTCTCGGAGTCACCTAGTGCAG”, the binding signal was 9930 fluorescence intensity (a.u.). “GATTTGATGGATTTGTTGAGAGATATGCTTCTTAAGCCAACGGAGTCACCTAGTGCAG” was tested, and the binding signal was 8300 fluorescence intensity (a.u.). “TCACGCGCTAATGGATCGCTCCGTTTTCCATGCTACTGTTCGGAGTCACCTAGTGCAG” was tested, and the binding signal was 9860 fluorescence intensity (a.u.). In the case of “GCGCCGACTCACTCCACCACCTCATCTCATCAGCTGCCTCCGGAGTCACCTAGTGCAG”, the binding signal is reported as 10600 fluorescence intensity (a.u.). For “GGAGGTAGGTGTGTGCCTGTGCGCTGCGTCTTTTGACCAACGGAGTCACCTAGTGCAG”, the binding signal was 9710 fluorescence intensity (a.u.). For “GCGACCTTGCCTCTGCTTCACATTGCCATAGCCGTTTCCTCGGAGTCACCTAGTGCAG”, the binding signal was 14100 fluorescence intensity (a.u.). In the case of “AGTTTAACTTTTTTTAGGGCGGAGGGAGTATATATGGGGCCGGAGTCACCTAGTGCAG”, the binding signal is reported as 10600 fluorescence intensity (a.u.). With “TTTGGAACATTAATGATAGGGGTGAGTAGACTAATTTTTCCGGAGTCACCTAGTGCAG” the binding signal was 8680 fluorescence intensity (a.u.). In the case of “ACCATCCCTGCTGACTCCAAGTCTATGTATTGTGTTTCTCCGGAGTCACCTAGTGCAG”, the binding signal is reported as 9760 fluorescence intensity (a.u.). With “GCGGAGCTCCTTGGCTTCTCGGTTCCACTTGAAACGCTCGCGGAGTCACCTAGTGCAG” the binding signal was 8190 fluorescence intensity (a.u.). With “TAGCATAGTGTCAAGTCAAACATTTTTAACTTTGACTATTCGGAGTCACCTAGTGCAG” the binding signal was 15800 fluorescence intensity (a.u.). With “ATCCATGCATCCATCCATCATTTAACCACGTAGCATGTATCGGAGTCACCTAGTGCAG” the binding signal was 8590 fluorescence intensity (a.u.). In the case of “AGTCGGAAGGCCACCACATCTGCATGCCATTCTCGTCATTCGGAGTCACCTAGTGCAG”, the binding signal is reported as 9110 fluorescence intensity (a.u.). “TTGTGCCGAAGAACTCCTACATGCGCTCGCCCGTCGGCCACGGAGTCACCTAGTGCAG” was tested, and the binding signal was 8050 fluorescence intensity (a.u.). For “ACTATTGTCATATTTTTTTTTATTGCTCTACATATGAAATCGGAGTCACCTAGTGCAG”, the binding signal was 8780 fluorescence intensity (a.u.). “GCTGCAGTTGTGTATAGTAGGAGAAGCTGATTTCTATATCCGGAGTCACCTAGTGCAG” was tested, and the binding signal was 9070 fluorescence intensity (a.u.). In the case of “CATGTAAACTTCTAACTTTTTCATCACATCATTCCAATTTCGGAGTCACCTAGTGCAG”, the binding signal is reported as 10400 fluorescence intensity (a.u.). In the case of “CAGTATAGATCATATTTTCCCGGTTTTTGCTGGCGTGGCACGGAGTCACCTAGTGCAG”, the binding signal is reported as 9280 fluorescence intensity (a.u.). “GCCGAGCGCCGCCACCACGCCACCGACCACCGCCACGCGCCGGAGTCACCTAGTGCAG” was tested, and the binding signal was 9020 fluorescence intensity (a.u.). In the case of “GTCAGTCTACATCAGTAGAGCAACTCTTGGTTCGTTTTTACGGAGTCACCTAGTGCAG”, the binding signal is reported as 8670 fluorescence intensity (a.u.). In the case of “ATGGTGGTTGTTACTGTCGTCCGTGTGTCTAGCTTGCCAACGGAGTCACCTAGTGCAG”, the binding signal is reported as 9870 fluorescence intensity (a.u.). “AAAGTAGGAAGTCGGTGGTAGGAGTGTTGACATGCAGGGTCGGAGTCACCTAGTGCAG” was tested, and the binding signal was 10500 fluorescence intensity (a.u.). “TATACCTGCTTCATCTGAACGTATATACGTCCGGTTCCTACGGAGTCACCTAGTGCAG” was tested, and the binding signal was 8410 fluorescence intensity (a.u.). With “GTTGATATTGTTGTTTTTCTTCGTAGCTTATTTTCCAGCGCGGAGTCACCTAGTGCAG” the binding signal was 8620 fluorescence intensity (a.u.). With “TAGCTAGCTCTTGTACAGGTTTCCTCACCTGCTGTATCGACGGAGTCACCTAGTGCAG” the binding signal was 8060 fluorescence intensity (a.u.). “AATTTTTGTGTGTCCCAGGGCAAATTTTGCCTTATATTTTCGGAGTCACCTAGTGCAG” was tested, and the binding signal was 8390 fluorescence intensity (a.u.). For “CTCTACTTCTAATGTTCCTTATTTTTTTTCCGAGTTTCTACGGAGTCACCTAGTGCAG”, the binding signal was 9390 fluorescence intensity (a.u.). With “CCTGAATTCCCTCGTCTAGATCTCACACGTCACAAGTCTCCGGAGTCACCTAGTGCAG” the binding signal was 9360 fluorescence intensity (a.u.). For “GTCCCCGTCCAGGCGCAGCTCCCCGGCGTCCTCGTCTCCGCGGAGTCACCTAGTGCAG”, the binding signal was 8380 fluorescence intensity (a.u.). In the case of “TTGCGGACATCAGTATCGTACGTGTCATTTTTTTTTGCAACGGAGTCACCTAGTGCAG”, the binding signal is reported as 9070 fluorescence intensity (a.u.). In the case of “CTACATATCTGTAACCCGCTGCTCTTCTCTCTCTTCTTTTCGGAGTCACCTAGTGCAG”, the binding signal is reported as 8200 fluorescence intensity (a.u.). In the case of “TGGTCGAGCTGCATCTTGGTTACGTTCTTCGCGAGCTCATCGGAGTCACCTAGTGCAG”, the binding signal is reported as 10900 fluorescence intensity (a.u.). For “CCACTCACATGTATGCACACACATCCCAAATTCCCAATTTCGGAGTCACCTAGTGCAG”, the binding signal was 8520 fluorescence intensity (a.u.). In the case of “GCATTCTGTTTTTTTGTTCGGCCTGCATTCATTTCCCTAACGGAGTCACCTAGTGCAG”, the binding signal is reported as 15200 fluorescence intensity (a.u.). In the case of “CCGCCCCGTTTTCACCCTAGTCACAGTCTTCTCGCCCCATCGGAGTCACCTAGTGCAG”, the binding signal is reported as 8970 fluorescence intensity (a.u.). With “ACGGCACGGCACGCTCTCCACCCCGCACGCTGCACGCATTCGGAGTCACCTAGTGCAG” the binding signal was 9290 fluorescence intensity (a.u.). For “CGCATTTTGTGCAATTTATACTGTGTTCTGTATGCATCAACGGAGTCACCTAGTGCAG”, the binding signal was 8060 fluorescence intensity (a.u.). In the case of “TCCTCTCTCTCTTCTTGTCATCCTCCTCATCTCTTCTTCCCGGAGTCACCTAGTGCAG”, the binding signal is reported as 11300 fluorescence intensity (a.u.). With “ACATCGGCATCGATTACAGCTTCGACTTCCTCGTCTCGTTCGGAGTCACCTAGTGCAG” the binding signal was 8940 fluorescence intensity (a.u.). In the case of “ACTGATATTTTTCTTTTCCAATCATAATTGTGCAAGTATTCGGAGTCACCTAGTGCAG”, the binding signal is reported as 8220 fluorescence intensity (a.u.). For “AACGGACGCGAAATCCTCTTCGGTTTTTGTATACTCATCCCGGAGTCACCTAGTGCAG”, the binding signal was 9230 fluorescence intensity (a.u.). For “ACTACTCTTAACTCTTTGCTAAATGCTGCTTTCGCAAATGCGGAGTCACCTAGTGCAG”, the binding signal was 8330 fluorescence intensity (a.u.). In the case of “TTCACTCTAGTACTCTGCTTGCTTCTCCGCATCCATCAACCGGAGTCACCTAGTGCAG”, the binding signal is reported as 9540 fluorescence intensity (a.u.). “GTTGGGATATCTTCATTTCATTCATTGTTGTGTGGTGCGACGGAGTCACCTAGTGCAG” was tested, and the binding signal was 8140 fluorescence intensity (a.u.). “GATTGGCTACACGCATATAGTTGCACGCATGCATGGTATTCGGAGTCACCTAGTGCAG” was tested, and the binding signal was 10100 fluorescence intensity (a.u.).
